Reference: PubChem BioAssay AID1159600 (NIAID, 2016)

Purpose: 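How human macrophage-like cells depend on pathway genes for TLR7/8 agonist response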 (primary screen)
Cell system: human THP-1 TNF reporter clone B5, made macrophage-like with PMA
Reagents: single siRNA against human genes
Time to read-out: 4 h ligand stimulation, assayed 48 to 72 h after siRNA transfection
Conditions: R848 (TLR7/8 agonist) for 4 hours before lysis; dose not given
Measurement: 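Robust z-score of firefly over renilla TNF promoter signal after 4 h R848, plate median/MAD normalised, relative to negative controls, averaged across replicates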
Direction: TNF reporter z-score: higher = stronger TNF promoter reporter signal after R848
Rule for the call: 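Active where mean z-score is about 1.5 or more from zero in either direction; depositor grades use cut-offs of 1, 1.5, 2 and 2.5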
Calls: active = strong change in TNF reporter (up or down); inactive = little change
The whole screen tested 756 reagents; below is a random part of them. In the full data, 134 (18%) are marked active. 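Active includes both reduced and increased reporter signal, though most active siRNAs reduce it; R848 dose unknown.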 The numbers tell different reagents against one gene apart. Not given: the amount of reagent.

With knock-down of PIK3CD #1, the record shows TNF reporter z-score -1.51; active.
With knock-down of PIK3CD #2 the results were TNF reporter z-score -0.325; inactive.
After knock-down of PIK3CD #3 the results were TNF reporter z-score 0.421; inactive.
PIK3CD #4 showed TNF reporter z-score -1.1; inactive.
With knock-down of PIK3CD #5, the record shows TNF reporter z-score 0.704; inactive.
PIK3CD #6 gave TNF reporter z-score -1.33; inactive.
UBE2V1 (ubiquitin conjugating enzyme E2 V1) #1 scored TNF reporter z-score -0.169; inactive.
UBE2V1 (ubiquitin conjugating enzyme E2 V1) #2 gave TNF reporter z-score -1.21; inactive.
Silencing of UBE2V1 (ubiquitin conjugating enzyme E2 V1) #3 resulted in: TNF reporter z-score 0.426; inactive.
Knock-down of UBE2V1 (ubiquitin conjugating enzyme E2 V1) #4 came out at: TNF reporter z-score -1.05; inactive.
After knock-down of UBE2V1 (ubiquitin conjugating enzyme E2 V1) #5 the results were TNF reporter z-score -0.68; inactive.
After knock-down of UBE2V1 (ubiquitin conjugating enzyme E2 V1) #6, the record shows TNF reporter z-score 0.0946; inactive.
After knock-down of CCL3 (C-C motif chemokine ligand 3) #1 the results were TNF reporter z-score 0.144; inactive.
Depletion of CCL3 (C-C motif chemokine ligand 3) #2 gave: TNF reporter z-score -0.655; inactive.
With knock-down of CCL3 (C-C motif chemokine ligand 3) #3, the screen gave TNF reporter z-score 0.0883; inactive.
CCL3 (C-C motif chemokine ligand 3) #4 scored TNF reporter z-score -0.677; inactive.
Depletion of CCL3 (C-C motif chemokine ligand 3) #5 gave: TNF reporter z-score 0.524; inactive.
Knock-down of CCL3 (C-C motif chemokine ligand 3) #6 resulted in: TNF reporter z-score -0.622; inactive.
With knock-down of ARF6 (ARF GTPase 6) #1 the results were TNF reporter z-score 0.989; inactive.
For ARF6 (ARF GTPase 6) #2, the entry reads TNF reporter z-score 0.0558; inactive.
Against ARF6 (ARF GTPase 6) #3 the deposit lists TNF reporter z-score 0.04; inactive.
ARF6 (ARF GTPase 6) #4 scored TNF reporter z-score -1.36; inactive.
For ARF6 (ARF GTPase 6) #5 the deposit lists TNF reporter z-score 0.573; inactive.
Against ARF6 (ARF GTPase 6) #6, the entry reads TNF reporter z-score 0.258; inactive.

A stretch taken from the entries so far, for reference:
ARF6 (ARF GTPase 6) #3 → TNF reporter z-score = 0.04; call = inactive
ARF6 (ARF GTPase 6) #4 → TNF reporter z-score = -1.36; call = inactive
ARF6 (ARF GTPase 6) #5 → TNF reporter z-score = 0.573; call = inactive
